Where “and” joins values, the source holds several entries; their conditions need not be identical. Equal values may be shown once. Screen size: about 580,000 compounds; about 6,100 (1.1%) were called active. Inconclusive means that the source gave no clear call. Such entries were picked first, then a sample of the others. Calls follow the shape of the dose curve; as a rule, active = well fitted inhibition curve with a large enough effect; inconclusive = small, poorly fitted or top-dose-only effect, or another doubt; inactive = no such curve, though single readings can be large or run the other way. Potencies beside an inconclusive call are fits to weak or partial responses and may not hold up. Peptide text beside a SMILES is read from it. * marks the point of attachment. Cbz = O=C(OCc1ccccc1)*
Molecular target: Polyunsaturated fatty acid lipoxygenase ALOX12 (Homo sapiens) (UniProt P18054)
Assay: Primary qHTS assay for inhibitors of human arachidonate 12S-lipoxygenase (ALOX12): Round 2
Settings: purified 12hLO, xylenol orange hydroperoxide absorbance
Summary of the method: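 Hydroperoxide product was detected by ferrous iron/xylenol orange as the 573 to 405 nm absorbance ratio. Arachidonic acid at 40 uM (final) was turned over for 30 min at room temperature by 150 nM human 12hLO, pH 7.0 Hepes buffer, after 15 min compound preincubation.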

Protein sequences, listed by entry. Tags and fused reporters are not part of them. Lines headed by an entry give the natural chain unless they say otherwise; changes in a name come on top.
UniProt P18054: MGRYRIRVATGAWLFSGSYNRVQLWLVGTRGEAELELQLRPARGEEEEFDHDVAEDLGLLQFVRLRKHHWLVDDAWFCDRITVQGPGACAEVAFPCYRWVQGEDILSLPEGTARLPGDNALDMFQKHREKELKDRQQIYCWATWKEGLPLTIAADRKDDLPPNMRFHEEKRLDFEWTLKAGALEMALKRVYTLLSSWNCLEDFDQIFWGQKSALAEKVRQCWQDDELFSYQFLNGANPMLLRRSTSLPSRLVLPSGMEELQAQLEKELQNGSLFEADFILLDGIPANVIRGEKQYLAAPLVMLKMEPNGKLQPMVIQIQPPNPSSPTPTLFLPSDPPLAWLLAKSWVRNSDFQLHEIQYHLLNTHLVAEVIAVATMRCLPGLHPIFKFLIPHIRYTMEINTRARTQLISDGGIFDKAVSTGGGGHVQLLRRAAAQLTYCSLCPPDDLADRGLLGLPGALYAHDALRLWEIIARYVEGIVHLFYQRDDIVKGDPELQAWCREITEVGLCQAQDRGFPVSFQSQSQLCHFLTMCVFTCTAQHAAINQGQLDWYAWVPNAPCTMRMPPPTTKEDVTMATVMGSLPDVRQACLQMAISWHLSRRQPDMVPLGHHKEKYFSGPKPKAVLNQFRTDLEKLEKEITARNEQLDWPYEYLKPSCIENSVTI

[1] = activity change, negative = inhibition: at 108 µM (top of the series) unless noted
% is scaled to controls: 0 for no effect and ±100 for the full control effect; potency is read from the fitted curve at half-maximal effect.

SMILES: CCN(Cc1cccc(F)c1)C(=O)c1ccc2ccccc2n1
- Potency [1]: inconclusive: 89.1 µM [inhibitor, partial curve, poor fit]

SMILES: CCCN(CC(=O)Nc1ccccc1C)C(=O)c1ccc2ccccc2n1
- Potency [1]: inactive

SMILES: N#C/C(=C/c1ccc(O)cc1)c1ccc(C(F)(F)F)cn1
- Potency [1]: inconclusive: 63.1 µM [inhibitor, partial curve, poor fit]

SMILES: CC(C)(C)C(=O)N[C@H]1CO[C@H]2[C@@H]1OC[C@@H]2Nc1nccc(-c2cccc(F)c2)n1
- Potency [1]: inactive

SMILES: CC(C)(C)c1ccc(C(=O)NC(=S)Nn2cnnc2)cc1
- Potency [1]: inconclusive: 44.7 µM [inhibitor, partial curve, poor fit]

SMILES: Cc1nnc(NC(=O)c2csc(NC3CC3)n2)s1
- Potency [1]: inactive

SMILES: Cc1ccc(-n2nnc(-c3cc4ccccc4n3C)n2)cc1
- Potency [1]: inconclusive: 89.1 µM [inhibitor, single point]

SMILES: CNS(=O)(=O)c1cc(NS(=O)(=O)c2cccc(Br)c2)ccc1C
- Potency [1]: inactive

SMILES: Cc1ccccc1CNC(=O)/C=C\C(=O)O
- Potency [1]: inconclusive: 50.1 µM [inhibitor, partial curve, poor fit]

SMILES: CCN(c1ccccc1)S(=O)(=O)c1cc(NC(=O)CN2CCN(C)CC2)ccc1Cl
- Potency [1]: inconclusive: 5.01 µM [inhibitor, full curve, poor fit]

SMILES: O=c1c2ccccc2cnn1Cc1n[nH]c(=S)n1-c1ccccc1Cl
- Potency [1]: inconclusive: 31.6 µM [inhibitor, partial curve]

SMILES: O=C(NCC1(c2ccccc2F)CCCC1)C1CCN(C(=O)C2CC2)CC1
- Potency [1]: inactive

SMILES: COCCn1c(=O)c(-c2cccc(C#N)c2)nc2cnc(N3CCOCC3)nc21
- Potency [1]: inconclusive: 39.8 µM [inhibitor, partial curve, poor fit]

SMILES: O=C(N/C=C/c1ccco1)Nc1cccc(Cl)c1
- Potency [1]: inconclusive: 2.82 µM [inhibitor, partial curve, poor fit]

SMILES: C=CCn1c(=O)c2ccccc2n2nnc(C(=O)OCC)c12
- Potency [1]: inconclusive: 126 µM [inhibitor, partial curve, poor fit]

SMILES: O=C(NC(=S)Nc1ccc(N2CCCCC2)c(Cl)c1)c1ccc2c(c1)OCCO2
- Potency [1]: active: 22.4 µM

SMILES: O=C1CC(Cc2ccc(Cl)cc2)C(=O)N1c1cc(Cl)ccn1 (stereo not given)
- Potency [1]: inconclusive: 112 µM [inhibitor, single point]

SMILES: N#CCSc1ccccc1C(=O)Nc1ccc2c(c1)OCCO2
- Potency [1]: inconclusive: 17.8 µM [inhibitor, full curve, poor fit]

SMILES: CCC(C)C(NC(=O)C(C)NC(=O)CNC(=O)CNC(=O)OCc1ccccc1)C(N)=O (stereo not given) (Cbz-GGAI-NH2; configuration not given here)
- Potency [1]: inconclusive: 1.78 µM [inhibitor, full curve, poor fit]

SMILES: CCCCOc1ccc(C2/C(=C(/O)c3ccc4c(c3)CC(C)O4)C(=O)C(=O)N2CCCN2CCOCC2)cc1OC (stereo not given)
- Potency [1]: inconclusive: 2.82 µM [inhibitor, full curve, poor fit]

SMILES: CC(C)OCCCNC(=O)c1cc(Nc2ccccc2)nc2ccccc12
- Potency [1]: inconclusive: 50.1 µM [inhibitor, partial curve, poor fit]

SMILES: COc1cc(/C=C/C(=O)OCC(=O)N2CC(C)OC(C)C2)ccc1OCC#N (stereo not given)
- Potency [1]: inconclusive: 79.4 µM [inhibitor, single point]

SMILES: CC(=O)N1Cc2ccccc2CC2(CCCN(CCc3ccc(C)cc3)C2)C1 (stereo not given)
- Potency [1]: inconclusive: 50.1 µM [inhibitor, partial curve]

SMILES: COc1cccc(CNC(=O)c2cccn2-c2nnc(N3CCCC3)s2)c1
- Potency [1]: inactive

SMILES: CCn1c(O)c(C=NC2CCCC2)sc1=S
- Potency [1]: inconclusive: 79.4 µM [inhibitor, partial curve, poor fit]

SMILES: O=C(/C=C/c1ccc(Cl)cc1)N(Cc1cccs1)C1CCS(=O)(=O)C1 (stereo not given)
- Potency [1]: inconclusive: 79.4 µM [inhibitor, single point]

SMILES: Cc1onc(-c2c(Cl)cccc2Cl)c1C(=O)N[C@@H]1C(=O)N2[C@@H]1SC(C)(C)[C@@H]2C(=O)O
- Potency [1]: inactive and inconclusive: 4.47 µM [inhibitor, full curve, poor fit]

SMILES: COc1ccc(CC(=O)Nc2cc(NC(=O)Cc3ccc(OC)c(OC)c3)cc(C(=O)O)c2)cc1OC
- Potency [1]: inactive

SMILES: Cc1cc(NC(=O)Nc2ccc(N(C)C)cc2)c2cc(F)cc(F)c2n1
- Potency [1]: inconclusive: 3.85 µM [inhibitor, partial curve, poor fit]

SMILES: O=C(O)c1ccc(/C=C/C(=O)c2ccc(N3CCOCC3)cc2)cc1
- Potency [1]: inconclusive: 35.5 µM [inhibitor, partial curve, poor fit]

SMILES: CCn1cc(CN2CCC([C@@H]3CNC[C@H]3CO)CC2)c(C)n1
- Potency [1]: inconclusive: 20 µM [inhibitor, full curve]

SMILES: O=C(NCCS(=O)c1ccc(Cl)cc1)c1cccc(Cl)c1 (stereo not given)
- Potency [1]: inconclusive: 126 µM [inhibitor, partial curve, poor fit]

SMILES: NC(=O)c1cc(-c2csc(NC3CCCC3)n2)ccc1O
- Potency [1]: inconclusive: 4.47 µM [inhibitor, full curve]

SMILES: Cc1ccc2nc(-c3ccc(Cl)cc3)c(Cc3ccccn3)n2c1
- Potency [1]: inconclusive: 28.2 µM [inhibitor, single point]

SMILES: O=C(N/C(=C/c1ccccc1)C(=O)N1CCCCC1)c1ccco1
- Potency [1]: inconclusive: 100 µM [inhibitor, partial curve, poor fit]

SMILES: COc1cccc(CNc2nc(NCc3ccccc3)nc3ccsc23)c1
- Potency [1]: inconclusive: 79.4 µM [inhibitor, partial curve, poor fit]

SMILES: CC(C)CC(/C(O)=C(\C#N)c1nc2ccccc2[nH]1)N1C(=O)c2ccccc2C1=O (stereo not given)
- Potency [1]: inconclusive: 31.6 µM [inhibitor, single point]

SMILES: CCCOc1c(C(=O)OC)sc2ccc(NC(=O)c3cccc(F)c3)cc12
- Potency [1]: inactive

SMILES: CS(=O)(=O)c1ccc(C(=O)NC2CCOC2=O)cc1 (stereo not given)
- Potency [1]: inconclusive: 158 µM [inhibitor, partial curve, poor fit]

SMILES: O=C(O)c1ccc2c(c1)c(C(C(=O)O)N1CCN(c3ncccn3)CC1)cn2Cc1ccccc1 (stereo not given)
- Potency [1]: inactive

SMILES: Cc1ccc(NC(=S)NCCC2=CCCCC2)cc1
- Potency [1]: inconclusive: 15.8 µM [inhibitor, partial curve]

SMILES: Cc1nn(-c2ccccc2)c(N2CCCCC2)c1/C=N/NC(=O)c1ccncc1
- Potency [1]: inactive

SMILES: O=C(NCc1ccccn1)C1CCCN(C2CCN(C(=O)Cn3cnnn3)CC2)C1 (stereo not given)
- Potency [1]: inactive

SMILES: CC(C)c1nnc(NC(=O)c2nc(S(=O)(=O)Cc3ccccc3)ncc2Cl)s1
- activity change, negative = inhibition [1]: inconclusive: -47.7% [inhibitor]
- activity change, negative = inhibition (at 108 µM (top of the series)): inactive: -20.6%

SMILES: CC1=C[C@@H](CNCc2cccnc2)[C@H](C(C)C)C[C@H]1Cc1nnc(-c2ccc(N(C)C)cc2)o1
- Potency [1]: inactive

SMILES: COc1ccc(CC(=O)NO)cc1OC
- Potency [1]: inconclusive: 44.7 µM [inhibitor, partial curve, poor fit]

SMILES: Cc1ccc(CNC(=O)CN2CCCC(C)C2)cc1 (stereo not given)
- Potency [1]: inactive

SMILES: COCCCNc1nc2ccccc2nc1NS(=O)(=O)c1cc(Cl)ccc1Cl
- Potency [1]: active: 39.8 µM

SMILES: Cc1ccc(C(=O)N2CCOCC2)cc1[N+](=O)[O-]
- Potency [1]: inconclusive: 28.2 µM [inhibitor, full curve, poor fit]

SMILES: CCOC(=O)c1[nH]c2c(c1C)C(=O)CC(c1ccc(F)cc1)C2 (stereo not given)
- Potency [1]: inactive

SMILES: CCN1CCN(CCC(=O)Nc2sc(-c3ccccc3)cc2C(=O)OC)CC1
- Potency [1]: inconclusive: 100 µM [inhibitor, partial curve, poor fit]

SMILES: O=C(c1ccc(F)cc1)N1CCN(C2CCCCC2)CC1
- Potency [1]: inconclusive: 0.355 µM [inhibitor, full curve, poor fit]

SMILES: COc1ccc(CNC(=O)C2CCN(c3nc4ccccc4o3)CC2)cc1
- Potency [1]: inactive

SMILES: COc1ccccc1CNC(=O)C(=O)NCCC1CCCCN1S(=O)(=O)c1ccccc1 (stereo not given)
- Potency [1]: inconclusive: 89.1 µM [inhibitor, single point]

SMILES: O=C(c1ccccc1)N1CCC2(CC1)N=C(c1ccc(Cl)cc1)NO2
- Potency [1]: inactive

SMILES: O=C(c1ccccc1)N1CCC(c2nc(C3CCOCC3)no2)C1 (stereo not given)
- Potency [1]: inconclusive: 2.24 µM [inhibitor, partial curve, poor fit]

SMILES: CCOC(=O)c1scc(-c2ccc(C)cc2)c1S(=O)(=O)Nc1ccc(F)c(F)c1
- Potency [1]: inconclusive: 56.2 µM [inhibitor, partial curve, poor fit]

SMILES: CCc1cc(OCCN(C)C)ccc1Cl
- Potency [1]: inconclusive: 0.355 µM [inhibitor, full curve, poor fit]

SMILES: Cc1ccc(-n2cccn2)c([C@@H]2C[C@H]3CN(C)C(=O)[C@]34CCCN24)c1
- Potency [1]: inconclusive: 100 µM [inhibitor, single point]

SMILES: COc1ccc(C(=O)N2CC(C)CC(C)C2)c2ccccc12 (stereo not given)
- Potency [1]: inconclusive: 126 µM [inhibitor, single point]

SMILES: CC(Sc1nnc(CN2CCCC2)n1Cc1ccccc1)C(=O)Nc1ccccc1 (stereo not given)
- Potency [1]: inconclusive: 112 µM [inhibitor, single point]

SMILES: CC1=CC(=O)C(C(C)C)=C/C1=N/OC(=O)c1cccc([N+](=O)[O-])c1
- Potency [1]: inconclusive: 25.1 µM [inhibitor, partial curve]

SMILES: CCOC(=O)N1CCc2c(sc(NCc3sccc3C)c2C(=O)Nc2ccccc2OCC)C1
- Potency [1]: inconclusive: 31.6 µM [inhibitor, partial curve, poor fit]

SMILES: c1coc(-c2nnc(CSc3ccc4c(c3)OCCCO4)o2)c1
- Potency [1]: inconclusive: 25.1 µM [inhibitor, partial curve, poor fit]

— PubChem BioAssay AID1671190 (National Center for Advancing Translational Sciences (NCATS), 2021)
